{
  "sequences": {"note": "By UniProt entry, the sequences of proteins in these tests, tags left out. Where a name states a change or a piece, a line headed by the entry shows the natural chain unless it says otherwise.", "UniProt P00970": "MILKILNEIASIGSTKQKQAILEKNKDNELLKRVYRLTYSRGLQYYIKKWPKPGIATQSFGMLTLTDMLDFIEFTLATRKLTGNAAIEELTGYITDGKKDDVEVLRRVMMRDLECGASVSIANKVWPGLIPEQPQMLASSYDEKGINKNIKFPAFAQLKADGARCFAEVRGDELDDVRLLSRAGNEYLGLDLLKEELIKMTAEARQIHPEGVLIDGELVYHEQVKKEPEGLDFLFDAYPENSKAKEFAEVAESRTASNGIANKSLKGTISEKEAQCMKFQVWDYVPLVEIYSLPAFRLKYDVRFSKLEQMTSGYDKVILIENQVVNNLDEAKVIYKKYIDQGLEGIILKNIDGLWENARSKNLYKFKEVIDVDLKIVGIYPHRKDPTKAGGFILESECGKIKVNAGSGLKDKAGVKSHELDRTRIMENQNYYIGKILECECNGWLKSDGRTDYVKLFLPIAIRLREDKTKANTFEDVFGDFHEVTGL"},
  "source": "paper PMC4782999",
  "about": "“The Inhibitory Effect of Non-Substrate and Substrate DNA on the Ligation and Self-Adenylylation Reactions Catalyzed by T4 DNA Ligase”",
  "biological_target": "T4 DNA ligase (deadenylylated) (UniProt P00970)",
  "test": "EMSA",
  "settings": "4 nM DNA, 100-1000 nM ligase, completely bound as ligase increases, 5 mM Mg2+, 1 mM pyrophosphate, no ATP, 5'-phosphate on S2 at nick, 3'-OH on S1, EMSA: 50 mM Tris pH 7.5, 5 mM DTT, 1 mM sodium pyrophosphate, 5% glycerol, room temperature (22 C), 20 min, commercial protein, label: 5'-32P on S2",
  "note": "The exact form of at least one protein or probe is not confirmed.",
  "data": [
    {"sequence": "GCGCACCCTTACCACCAAGACAGGATCGTCCTTGC / TGATCATGCATCGTTCCACTGTGTCCGCGACATCTACGTC / GACGTAGATGTCGCGGACACAGTGGAACGATGCATGATCAGCAAGGACGATCCTGTCTTGGTGGTAAGGGTGCGC [75mer-ds-nDNA (nicked, 32P)]", "values": [
      {"measurement": "binding result", "result": "binds"}
    ]}
  ]
}
